PubChem BioAssay AID1508588 | Peter MacCallum Cancer Centre – 2020
Assay: 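Genome-wide search for knock-downs that heighten vemurafenib action in melanoma cells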 (primary screen). Cells: human WM266.4 melanoma cells (BRAF V600 mutant). Knock-down reagent: siRNA pool against human genes, 40 nM. Duration: 96 h from transfection to read-out. Treatment: vemurafenib 300 nM (about IC25), added 48 h after transfection, for 48 h; comparison arm got DMSO vehicle only. Measured: 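Ratios to non-targeting siRNA for cell gain, counted as DAPI nuclei after minus before drug and averaged over two replicates, and for absorbance-read medium lactate per cell; both binned into fold-change classes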. Direction: cell gain with vemurafenib: higher = more cell gain than with non-targeting siRNA; lactate per cell with vemurafenib: higher = more lactate made per cell. Rule for the call: 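Enhancement is called by pairing each knock-down's vehicle-arm and drug-arm fold-change classes for viability or glycolysis; which class combinations qualify is not given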. Meaning of the calls: active = enhances vemurafenib effect; inactive = no enhancement seen.
The whole screen tested about 18,000 reagents; this is an unselected part. Of all reagents, 790 (4.4%) were called active. 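Calls rest on a combination of fold-change classes in drug and vehicle arms, not all shown here.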

The opening 4 entries as a preview:
target | cell gain with vemurafenib | lactate per cell with vemurafenib | call
MLLT1 | 0.61 | 1.19 | inactive
SERPINB3 | 0.74 | 0.98 | inactive
TTYH3 | 0.46 | 0.95 | inactive
SPG7 | 0.61 | 0.84 | inactive

The list itself, repeating the preview:
target | cell gain with vemurafenib | lactate per cell with vemurafenib | call
MLLT1 | 0.61 | 1.19 | inactive
SERPINB3 | 0.74 | 0.98 | inactive
TTYH3 | 0.46 | 0.95 | inactive
SPG7 | 0.61 | 0.84 | inactive
SRRM2 | 0.59 | 0.52 | active
RASSF7 | 0.55 | 1.36 | inactive
MKRN2 | 0.75 | 0.9 | inactive
TCEAL8 | 0.63 | 0.46 | active
DCST1 | 0.72 | 0.56 | inactive
GANAB | 0.45 | 1.17 | inactive
GRIN3A | 0.97 | 0.57 | inactive
DIRAS3 | 0.82 | 1.1 | inactive
TSPO2 | 0.85 | 0.6 | inactive
TIMMDC1 | 0.69 | 1.12 | inactive
AKR1A1 | 0.18 | 0.84 | inactive
SLC45A2 | 0.88 | 0.85 | inactive
ZMIZ2 | 0.69 | 0.97 | inactive
IGFL1 | 0.94 | 0.68 | inactive
SLC9C2 | 0.63 | 0.78 | inactive
TTLL3 | 0.25 | 0.8 | inactive
RNPS1 | 0.02 | 3.14 | inactive
GJD3 | 0.75 | 0.6 | inactive
ZNF436 | 0.73 | 0.6 | inactive
LIX1L | 0.99 | 1.21 | inactive
ISOC2 | 0.69 | 0.48 | inactive
CYP4V2 | 0.66 | 1.23 | inactive
CHEK2 | 0.81 | 0.68 | inactive
CCNG1 | 0.45 | 1.34 | inactive
LEPR | 0.5 | 0.76 | inactive
NEFL | 0.69 | 0.72 | inactive
RPL18 | -0.08 | 3.04 | inactive
CT47A10 | 0.95 | 0.39 | inactive
FBXO33 | 0.72 | 0.71 | inactive
DMXL2 | 0.89 | 1.25 | inactive
ZNF324 | 0.07 | 2.31 | inactive
ICE2 | 0.77 | 0.9 | inactive
EIF3G | 0.2 | 0.91 | inactive
NODAL | 0.35 | 0.48 | active
PCDHGA3 | 1.01 | 0.82 | inactive
NINJ2 | 0.7 | 0.83 | inactive
GPN1 | 0.33 | 1.88 | inactive
EZHIP | 0.75 | 1.43 | inactive
NEIL1 | 0.42 | 1.02 | inactive
TOPBP1 | 0.08 | 2.79 | inactive
ZNF576 | 0.44 | 2.56 | inactive
ATP2B4 | 1.25 | 0.74 | inactive
NXN | 0.31 | 0.3 | inactive
ZNF664 | 0.47 | 0.75 | inactive
CKMT1B | 0.79 | 1.12 | inactive
NLRP8 | 0.89 | 0.53 | inactive
MYBPC3 | 0.73 | 1.26 | inactive
PPP4R3B | 1.17 | 1 | inactive
TAS2R46 | 0.53 | 1.08 | inactive
MRPS24 | 0.69 | 1.01 | inactive
TMEM81 | 0.98 | 0.92 | inactive
HSF4 | 0.79 | 0.84 | inactive
THOC6 | 0.91 | 0.82 | inactive
